# Assay results published in patent US20060275900A1, “Methods for in vitro expansion and transdifferentiation of human pancreatic acinar cells into insulin-producing cells” (Becton, Dickinson and Company, priority 2002, published 2006).
# System: primary human pancreatic acinar cells, IP cells, putative insulin producing cells
# Assay: 12K microarray mRNA expression at Day 3, Day 8 and Day 16 (Tables 6 and 7)
# Assay type: cell-based
# [1] = 12K microarray mRNA expression level of the gene at Day 3 (primary human pancreatic acinar cells)
# [2] = 12K microarray mRNA expression level of the gene at Day 8 (IP cells)
# [3] = 12K microarray mRNA expression level of the gene at Day 16 (putative insulin producing cells)
# [4] = mRNA expression signal on 12K microarray, Day 3 culture (primary human pancreatic acinar cells)
# [5] = mRNA expression signal on 12K microarray, Day 8 culture (IP cells)
# [6] = mRNA expression signal on 12K microarray, Day 16 culture (putative insulin producing cells)
# [7] = mRNA expression signal on 12K microarray, Day 3 cells (primary human pancreatic acinar cells)
# [8] = mRNA expression signal on 12K microarray, Day 8 cells (IP cells)
# [9] = mRNA expression signal on 12K microarray, Day 16 cells (putative insulin producing cells)
# [10] = mRNA expression level of the gene named in the row, 12K microarray, Day 3 culture (primary human pancreatic acinar cells)
# [11] = mRNA expression level of the gene named in the row, 12K microarray, Day 8 culture (IP cells)
# [12] = mRNA expression level of the gene named in the row, 12K microarray, Day 16 culture (putative insulin producing cells)
substance,measurement,setting,value
connective tissue growth factor,day3,[1],596.4123
same,day8,[2],537
same,day16,[3],1071.517
interleukin 1; alpha,day3,[4],103.386
same,day8,[5],375
same,day16,[6],66.6314
carbonic anhydrase II,day3,[7],283.4506
same,day8,[8],172
same,day16,[9],195.9099
neuregulin 1,day3,[7],89.51
same,day8,[8],234
same,day16,[9],201.3025
interleukin 1; beta,day3,[4],116.7675
same,day8,[5],415
same,day16,[6],119.0156
paxillin,day3,[10],313.7788
same,day8,[11],334
same,day16,[12],181.2995
hypothetical protein,day3,[1],1188.199
same,day8,[2],1490
same,day16,[3],1593.015
endothelin 1,day3,[4],866.4561
same,day8,[5],1810
same,day16,[6],403.431
cytochrome c,day3,[1],547.6708
same,day8,[2],442
same,day16,[3],517.6125
transforming growth factor; beta-,day3,[4],1221.083
same,day8,[5],2060
same,day16,[6],8540.86
catalase,day3,[7],160.7098
same,day8,[8],239
same,day16,[9],199.9283
dihydrofolate reductase,day3,[7],148.8142
same,day8,[8],59.6
same,day16,[9],213.6217
transforming growth factor; beta,day3,[7],112.4415
same,day8,[8],208
same,day16,[9],213.3211
insulin,day3,[10],367.022
same,day8,[11],113
same,day16,[12],176.7437
